The record followed here is paper PMC5406014.

Assay [1] concerns the target myc-BirA-TRF1 (UniProt P54274). Briefly: proximity labelling; BioID in ALT+ U2OS cells stably expressing myc-BirA-TRF1; 50 µM biotin for 24 hr; streptavidin pull-down from ~6 x 10^7 cells, LC-MS in triplicate; myc-BirA cells as negative reference.
Assay [2] deals with myc-BirA-TRF1 (UniProt P54274). Briefly: proximity labelling; BioID in TEL+ HeLa LT cells stably expressing myc-BirA-TRF1; 50 µM biotin for 24 hr; streptavidin pull-down from ~6 x 10^7 cells, LC-MS in triplicate; myc-BirA cells as negative reference.
For assay [3], the target named is T1, myc-BirA-TRF1, P54274.
T1 chain: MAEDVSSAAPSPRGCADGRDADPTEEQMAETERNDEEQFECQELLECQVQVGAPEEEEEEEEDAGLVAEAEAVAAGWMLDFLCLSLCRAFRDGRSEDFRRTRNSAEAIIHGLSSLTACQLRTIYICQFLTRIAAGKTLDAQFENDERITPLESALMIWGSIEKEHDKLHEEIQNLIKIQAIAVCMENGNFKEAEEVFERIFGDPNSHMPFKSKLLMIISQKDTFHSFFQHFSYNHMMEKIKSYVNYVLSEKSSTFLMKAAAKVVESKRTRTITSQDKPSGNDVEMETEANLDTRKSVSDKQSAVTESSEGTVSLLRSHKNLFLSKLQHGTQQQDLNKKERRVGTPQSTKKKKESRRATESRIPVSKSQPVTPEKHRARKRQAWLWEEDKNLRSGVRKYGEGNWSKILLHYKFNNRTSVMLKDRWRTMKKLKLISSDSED
Briefly: proximity labelling; BioID in U2OS cells expressing myc-BirA-TRF1; 50 µM biotin for 24 hr; streptavidin pull-down read by western blot with specific antibodies. The conditions noted are these: remark: other sources report otherwise.

The target in assay [4] is myc-BirA-TRF1 (UniProt P54274). Described as above.

Results are given in words; binding and its absence hold for the method and conditions named. Binding seen in cells or lysates may run through a third protein. Here binding means that the protein was enriched with, or labelled near, the bait; the list need not be complete. For some assays here: Tags and fused reporters may be left off the sequences shown.

B1: POT1 (protein, UniProt Q9NUX5 1-634)
chain: MSLVPATNYIYTPLNQLKGGTIVNVYGVVKFFKPPYLSKGTDYCSVVTIVDQTNVKLTCLLFSGNYEALPIIYKNGDIVRFHRLKIQVYKKETQGITSSGFASLTFEGTLGAPIIPRTSSKYFNFTTEDHKMVEALRVWASTHMSPSWTLLKLCDVQPMQYFDLTCQLLGKAEVDGASFLLKVWDGTRTPFPSWRVLIQDLVLEGDLSHIHRLQNLTIDILVYDNHVHVARSLKVGSFLRIYSLHTKLQSMNSENQTMLSLEFHLHGGTSYGRGIRVLPESNSDVDQLKKDLESANLTANQHSDVICQSEPDDSFPSSGSVSLYEVERCQQLSATILTDHQYLERTPLCAILKQKAPQQYRIRAKLRSYKPRRLFQSVKLHCPKCHLLQEVPHEGDLDIIFQDGATKTPDVKLQNTSLYDSKIWTTKNQKGRKVAVHFVKNNGILPLSNECLLLIEGGTLSEICKLSNKFNSVIPVRSGHEDLELLDLSAPFLIQGTIHHYGCKQCSSLRSIQNLNSLVDKTSWIPSSVAEALGIVPLQYVFVMTFTLDDGTGVLEAYLMDSDKFFQIPASEVLMDDDLQKSVDMIMDMFCPPGIKIDAYPWLECFIKSYNVTNGTDNQICYQIFDTTVAEDVI
As to B1, the binding result in assay [1] and in assay [2] was “binds” in each case.

B2: APOLLO (protein, UniProt Q9H816 1-532)
chain: MNGVLIPHTPIAVDFWSLRRAGTARLFFLSHMHSDHTVGLSSTWARPLYCSPITAHLLHRHLQVSKQWIQALEVGESHVLPLDEIGQETMTVTLLDANHCPGSVMFLFEGYFGTILYTGDFRYTPSMLKEPALTLGKQIHTLYLDNTNCNPALVLPSRQEAAHQIVQLIRKHPQHNIKIGLYSLGKESLLEQLALEFQTWVVLSPRRLELVQLLGLADVFTVEEKAGRIHAVDHMEICHSNMLRWNQTHPTIAILPTSRKIHSSHPDIHVIPYSDHSSYSELRAFVAALKPCQVVPIVSRRPCGGFQDSLSPRISVPLIPDSVQQYMSSSSRKPSLLWLLERRLKRPRTQGVVFESPEESADQSQADRDSKKAKKEKLSPWPADLEKQPSHHPLRIKKQLFPDLYSKEWNKAVPFCESQKRVTMLTAPLGFSVHLRSTDEEFISQKTREEIGLGSPLVPMGDDDGGPEATGNQSAWMGHGSPLSHSSKGTPLLATEFRGLALKYLLTPVNFFQAGYSSRRFDQQVEKYHKPC
On to B2, for which the binding entry in assay [1] and in assay [2] was “binds” in each case.

B3: TRF2, Q15554 1-542 (protein)
chain: MAAGAGTAGPASGPGVVRDPAASQPRKRPGREGGEGARRSDTMAGGGGSSDGSGRAAGRRASRSSGRARRGRHEPGLGGPAERGAGEARLEEAVNRWVLKFYFHEALRAFRGSRYGDFRQIRDIMQALLVRPLGKEHTVSRLLRVMQCLSRIEEGENLDCSFDMEAELTPLESAINVLEMIKTEFTLTEAVVESSRKLVKEAAVIICIKNKEFEKASKILKKHMSKDPTTQKLRNDLLNIIREKNLAHPVIQNFSYETFQQKMLRFLESHLDDAEPYLLTMAKKALKSESAASSTGKEDKQPAPGPVEKPPREPARQLRNPPTTIGMMTLKAAFKTLSGAQDSEAAFAKLDQKDLVLPTQALPASPALKNKRPRKDENESSAPADGEGGSELQPKNKRMTISRLVLEEDSQSTEPSAGLNSSQEAASAPPSKPTVLNQPLPGEKNPKVPKGKWNSSNGVEEKETWVEEDELFQVQAAPDEDSTTNITKKQKWTVEESEWVKAGVQKYGEGNWAAISKNYPFVNRTAVMIKDRWRTMKRLGMN
For B3, in assay [3], the binding result is given as “binds”.

B4: RAP1 (protein, UniProt Q9NYB0 1-399)
chain: MAEAMDLGKDPNGPTHSSTLFVRDDGSSMSFYVRPSPAKRRLSTLILHGGGTVCRVQEPGAVLLAQPGEALAEASGDFISTQYILDCVERNERLELEAYRLGPASAADTGSEAKPGALAEGAAEPEPQRHAGRIAFTDADDVAILTYVKENARSPSSVTGNALWKAMEKSSLTQHSWQSLKDRYLKHLRGQEHKYLLGDAPVSPSSQKLKRKAEEDPEAADSGEPQNKRTPDLPEEEYVKEEIQENEEAVKKMLVEATREFEEVVVDESPPDFEIHITMCDDDPPTPEEDSETQPDEEEEEEEEKVSQPEVGAAIKIIRQLMEKFNLDLSTVTQAFLKNSGELEATSAFLASGQRADGYPIWSRQDDIDLQKDDEDTREALVKKFGAQNVARRIEFRKK
In the case of B4, the binding entry in assay [4], in assay [1] and in assay [2] was “binds” in each case.
